One molecule from paper PMC5913134, “The IL-33-PIN1-IRAK-M axis is critical for type 2 immunity in IL-33-induced allergic airway inflammation” (Nature Communications, 2018) can be followed below.

Sequences of proteins named here, by UniProt entry; tags and fusion partners are left off.
UniProt Q13526: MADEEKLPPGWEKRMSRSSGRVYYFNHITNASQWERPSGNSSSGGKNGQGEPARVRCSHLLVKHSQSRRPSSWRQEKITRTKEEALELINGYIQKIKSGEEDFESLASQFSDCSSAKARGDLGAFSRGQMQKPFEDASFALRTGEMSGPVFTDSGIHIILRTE

Results are given in words; binding and its absence hold for the method and conditions named. Binding seen in cells or lysates may run through a third protein. Some entries that bind do so weakly or less than the wild type.

Experiment [1] addresses GST-PIN1 (UniProt Q13526). As to the kind of experiment: pull-down; GST-PIN1 on Glutathione-Sepharose 4B mixed with 1 mg total protein extract of DC2.4 cells treated with IL-33 (100 ng/ml, 1 h), 3 h at 4 °C; 150 mM NaCl, 20 mM Tris-HCl pH 8, 1 mM MgCl2, 0.1% NP-40; eluted with reduced glutathione, blot or IP for IRAK-M; only the target purified.
Experiment [2] deals with GST-PIN1 (UniProt Q13526). The experiment in a line: condition: only cells treated with LPS (100 ng/ml, 1 h) instead of IL-33; pull-down; as a1, but extract of DC2.4 cells treated with LPS (100 ng/ml, 1 h); only the target purified.

B1: interleukin receptor associated kinase M (IRAK-M), endogenous in DC2.4 cells (protein, UniProt Q8K4B2 1-609)
chain: MAGRCGARGALSPQLLLFDLPPALLGELCGILDSCDGPLGWRGLAERLSNSWLDVRHIEKYVNQGKSGTRELLWSWAQKNKTIGDLLEVLQDMGHQRAIHLIINYGVSWTPSVQTHHELPFPSFPPEVKHACRENDPGPLEPANVTVDNVLVPEHNEKGTLQKTPISFQSILEGTKHFHKDFLIGEGEIFEVYRVDIRNQAYAVKLFKQEKKMQLKKHWKRFLSELEVLLLFRHPHILELAAYFTETEKLCLVYPYMSNGTLFDRLQCTNGTTPLSWHVRISVLIGIAKAIQYLHNTQPCAVICGNVSSANILLDDQLQPKLTDFAAAHFRPNLEQQSSTINMTGGGRKHLWYMPEEYIRQGRLSVKTDVYSFGIVIMEVLTGCKVVLDDPKHVQLRDLLMELMEKRGLDSCLSFLDRKIPPCPRNFSAKLFSLAGRCVATKAKLRPTMDEVLSSLESTQPSLYFAEDPPTSLKSFRCPSPLFLDNVPSIPVEDDENQNNHSVPPKEVLGTDRVTQKTPFECSQSEVTFLGLDRNRGNRGSEADCNVPSSSHEECWSPELVAPSQDLSPTVISLGSSWEVPGHSYGSKPMEKRCSSGLFCSEHEQSKKQ
With B1, the binding result with GST-PIN1 [1] is recorded as “binds”; in the experiment with GST-PIN1 [2], “no binding”.
